± gives the standard deviation of the averaged measurements. The reference is the same well before dosing, and untreated signal decays as well.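 Fibroblast labels denote human fibroblasts, mainly primary ones from uterus (C12385, HUF), lung (H6013), bone (Hs27A), adrenal (HADF) and skin (WS1), plus mammary HMF and breast cancer-associated Hs343T. Cancer cells are basal-like or mesenchymal-like triple-negative breast cancer lines. A hit is a response shift exceeding 3x replicate standard deviation. The tissue of the other fibroblasts is not given here.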
Tested on: MDAMB468
Assay: relative JC-1 red fluorescence (viability) vs pre-drug, coculture with fibroblast (fraction); higher = more viable cancer cells
Method: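 JC-1 labelled TNBC cells cocultured 1:1 (1,500 cells each) with CellTrace Violet stained primary or stromal fibroblasts in 384-well plates in FluoroBrite medium, treated with one of 42 anticancer drugs at 0.1, 1, 10 or 100 uM. JC-1 red fluorescence (mitochondrial integrity in cancer cells only) was read by plate reader every 8 h for 72 h. Values are normalised to each well's pre-drug value. The stock of one drug was tenfold lower, so its dose labels may be too high.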

C[C@]12CC[C@@H]3c4ccc(O)cc4C[C@@H](CCCCCCCCC[S+]([O-])CCCC(F)(F)C(F)(F)F)[C@H]3[C@@H]1CC[C@@H]2O (stereo partly drawn) [Fulvestrant]
relative JC-1 red fluorescence
Conditions | 8 h | 16 h | 24 h | 32 h | 40 h | 48 h | 56 h | 64 h | 72 h
10 µM, coculture fibroblast: C12385 | 0.91314 ± 0.00084 | 0.91903 ± 0.0005 | 0.91 ± 0.011 | 0.817 ± 0.015 | 0.767 ± 0.022 | 0.744 ± 0.033 | 0.701 ± 0.026 | 0.669 ± 0.028 | 0.653 ± 0.026
10 µM, coculture fibroblast: H6013 | 0.9336 ± 0.0071 | 0.945 ± 0.018 | 0.891 ± 0.031 | 0.893 ± 0.04 | 0.846 ± 0.027 | 0.858 ± 0.042 | 0.827 ± 0.05 | 0.809 ± 0.045 | 0.809 ± 0.033
10 µM, coculture fibroblast: H6019 | 0.9048 ± 0.0056 | 0.8746 ± 0.0076 | 0.828 ± 0.027 | 0.757 ± 0.039 | 0.724 ± 0.036 | 0.704 ± 0.05 | 0.668 ± 0.073 | 0.633 ± 0.095 | 0.618 ± 0.1
10 µM, coculture fibroblast: H6076 | 0.967 ± 0.011 | 0.774 ± 0.064 | 0.943 ± 0.018 | 0.9352 ± 0.0085 | 0.87 ± 0.011 | 0.857 ± 0.014 | 0.828 ± 0.021 | 0.837 ± 0.013 | 0.951 ± 0.018
10 µM, coculture fibroblast: H6231 | 0.834 ± 0.013 | 0.9666 ± 0.0052 | 0.92713 ± 0.00038 | 0.893 ± 0.028 | 0.843 ± 0.05 | 0.841 ± 0.054 | 0.819 ± 0.021 | 0.854 ± 0.061 | 0.855 ± 0.083
10 µM, coculture fibroblast: HADF | 0.94 ± 0.029 | 0.945 ± 0.033 | 0.882 ± 0.041 | 0.904 ± 0.038 | 0.855 ± 0.055 | 0.843 ± 0.056 | 0.802 ± 0.055 | 0.79 ± 0.049 | 0.782 ± 0.038
10 µM, coculture fibroblast: HCFa | 0.97 ± 0.018 | 0.936 ± 0.044 | 0.913 ± 0.039 | 0.928 ± 0.043 | 0.857 ± 0.046 | 0.877 ± 0.07 | 0.847 ± 0.073 | 0.84 ± 0.072 | 0.839 ± 0.071
10 µM, coculture fibroblast: HCPF | 0.895 ± 0.012 | 0.9315 ± 0.0065 | 0.907 ± 0.031 | 0.9271 ± 0.0064 | 0.862 ± 0.013 | 0.825 ± 0.0091 | 0.7806 ± 0.0028 | 0.7688 ± 0.00085 | 0.7658 ± 0.0063
10 µM, coculture fibroblast: HHSteC | 0.966 ± 0.012 | 0.98 ± 0.019 | 0.9013 ± 0.0077 | 0.898 ± 0.0068 | 0.846 ± 0.019 | 0.872 ± 0.015 | 0.824 ± 0.011 | 0.813 ± 0.022 | 0.799 ± 0.01
10 µM, coculture fibroblast: HMF | 0.872 ± 0.0089 | 0.896 ± 0.093 | 0.93 ± 0.052 | 0.921 ± 0.044 | 0.866 ± 0.061 | 0.851 ± 0.082 | 0.806 ± 0.078 | 0.8 ± 0.09 | 0.778 ± 0.089
10 µM, coculture fibroblast: HPFa | 0.784 ± 0.042 | 0.854 ± 0.081 | 0.968 ± 0.037 | 0.926 ± 0.029 | 0.871 ± 0.01 | 0.8798 ± 0.0015 | 0.808 ± 0.012 | 0.779 ± 0.01 | 0.714 ± 0.016
10 µM, coculture fibroblast: HUF | 0.968 ± 0.0032 | 0.927 ± 0.042 | 0.845 ± 0.015 | 0.783 ± 0.013 | 0.737 ± 0.017 | 0.714 ± 0.026 | 0.675 ± 0.047 | 0.649 ± 0.028 | 0.626 ± 0.026
10 µM, coculture fibroblast: Hs5 | 0.868 ± 0.16 | 0.883 ± 0.075 | 0.921 ± 0.019 | 0.937 ± 0.075 | 0.888 ± 0.067 | 0.848 ± 0.08 | 0.794 ± 0.078 | 0.761 ± 0.079 | 0.771 ± 0.09
10 µM, coculture fibroblast: Hs27A | 0.909 ± 0.013 | 0.909 ± 0.019 | 0.862 ± 0.011 | 0.8815 ± 0.005 | 0.8125 ± 0.00082 | 0.79786 ± 0.00043 | 0.78 ± 0.0082 | 0.7575 ± 0.0061 | 0.7816 ± 0.0068
10 µM, coculture fibroblast: Hs343T | 0.921 ± 0.023 | 0.904 ± 0.1 | 0.923 ± 0.08 | 0.921 ± 0.041 | 0.869 ± 0.047 | 0.857 ± 0.058 | 0.801 ± 0.035 | 0.785 ± 0.052 | 0.79 ± 0.046
10 µM, coculture fibroblast: WS1 | 0.9155 ± 0.0029 | 0.899 ± 0.0096 | 0.826 ± 0.023 | 0.775 ± 0.037 | 0.723 ± 0.045 | 0.684 ± 0.05 | 0.65 ± 0.057 | 0.613 ± 0.043 | 0.597 ± 0.038
100 µM, coculture fibroblast: C12385 | 0.854 ± 0.2 | 0.917 ± 0.11 | 0.82 ± 0.14 | 0.875 ± 0.17 | 0.841 ± 0.19 | 0.84 ± 0.21 | 0.843 ± 0.17 | 0.855 ± 0.12 | 0.837 ± 0.14
100 µM, coculture fibroblast: H6013 | 0.766 ± 0.088 | 0.759 ± 0.03 | 0.87962 ± 0.00015 | 0.809 ± 0.076 | 0.819 ± 0.023 | 0.884 ± 0.064 | 0.756 ± 0.06 | 0.858 ± 0.059 | 0.809 ± 0.086
100 µM, coculture fibroblast: H6019 | 0.851 ± 0.072 | 0.898 ± 0.016 | 0.826 ± 0.02 | 0.773 ± 0.04 | 0.843 ± 0.098 | 0.808 ± 0.046 | 0.769 ± 0.014 | 0.7768 ± 0.0017 | 0.74 ± 0.05
100 µM, coculture fibroblast: H6076 | 0.876 ± 0.062 | 0.773 ± 0.057 | 0.7501 ± 0.0039 | 0.83 ± 0.076 | 0.801 ± 0.11 | 0.797 ± 0.098 | 0.79 ± 0.12 | 0.772 ± 0.019 | 0.902 ± 0.024
100 µM, coculture fibroblast: H6231 | 0.944 ± 0.036 | 0.839 ± 0.072 | 0.8899 ± 0.008 | 0.798 ± 0.13 | 0.9143 ± 0.006 | 0.815 ± 0.14 | 0.731 ± 0.01 | 0.814 ± 0.083 | 0.809 ± 0.073
100 µM, coculture fibroblast: HADF | 0.956 ± 0.033 | 0.946 ± 0.033 | 0.894 ± 0.034 | 0.938 ± 0.013 | 0.879 ± 0.0021 | 0.8812 ± 0.0064 | 0.867 ± 0.032 | 0.881 ± 0.039 | 0.876 ± 0.039
100 µM, coculture fibroblast: HCFa | 0.809 ± 0.066 | 0.801 ± 0.032 | 0.9064 ± 0.0019 | 0.814 ± 0.11 | 0.774 ± 0.11 | 0.758 ± 0.067 | 0.8 ± 0.098 | 0.806 ± 0.074 | 0.872 ± 0.018
100 µM, coculture fibroblast: HCPF | 0.938 ± 0.032 | 0.861 ± 0.16 | 0.871 ± 0.064 | 0.895 ± 0.032 | 0.855 ± 0.013 | 0.849 ± 0.031 | 0.825 ± 0.039 | 0.8 ± 0.019 | 0.735 ± 0.048
100 µM, coculture fibroblast: HHSteC | 0.815 ± 0.021 | 0.806 ± 0.089 | 0.866 ± 0.17 | 0.927 ± 0.099 | 0.732 ± 0.031 | 0.909 ± 0.04 | 0.856 ± 0.18 | 0.815 ± 0.064 | 0.837 ± 0.088
100 µM, coculture fibroblast: HMF | 0.872 ± 0.17 | 0.797 ± 0.026 | 0.915 ± 0.024 | 0.843 ± 0.12 | 0.861 ± 0.022 | 0.797 ± 0.14 | 0.821 ± 0.046 | 0.763 ± 0.0077 | 0.722 ± 0.012
100 µM, coculture fibroblast: HPFa | 0.804 ± 0.12 | 0.761 ± 0.022 | 0.796 ± 0.06 | 0.771 ± 0.088 | 0.885 ± 0.069 | 0.773 ± 0.0093 | 0.881 ± 0.033 | 0.808 ± 0.1 | 0.752 ± 0.045
100 µM, coculture fibroblast: HUF | 0.979 ± 0.018 | 0.919 ± 0.04 | 0.893 ± 0.034 | 0.86 ± 0.055 | 0.83 ± 0.069 | 0.808 ± 0.071 | 0.775 ± 0.072 | 0.771 ± 0.077 | 0.762 ± 0.069
100 µM, coculture fibroblast: Hs5 | 0.721 ± 0.036 | 0.977 ± 0.014 | 0.969 ± 0.042 | 0.86 ± 0.068 | 0.891 ± 0.084 | 0.879 ± 0.1 | 0.856 ± 0.14 | 0.828 ± 0.15 | 0.858 ± 0.18
100 µM, coculture fibroblast: Hs27A | 0.947 ± 0.052 | 0.89 ± 0.069 | 0.918 ± 0.055 | 0.864 ± 0.07 | 0.8562 ± 0.0069 | 0.922 ± 0.095 | 0.914 ± 0.11 | 0.904 ± 0.13 | 0.74 ± 0.033
100 µM, coculture fibroblast: Hs343T | 0.934 ± 0.052 | 0.85 ± 0.051 | 0.767 ± 0.046 | 0.805 ± 0.1 | 0.799 ± 0.036 | 0.804 ± 0.1 | 0.769 ± 0.099 | 0.741 ± 0.036 | 0.789 ± 0.14
100 µM, coculture fibroblast: WS1 | 0.876 ± 0.062 | 0.797 ± 0.12 | 0.904 ± 0.098 | 0.886 ± 0.11 | 0.842 ± 0.14 | 0.813 ± 0.16 | 0.812 ± 0.17 | 0.797 ± 0.2 | 0.794 ± 0.22

— the supplement of paper PMC6078165
